Positions count from the first letter of the chain named. No constants are given. Whether binding was seen depends on the method and setting. For some of these results: Binding can be weak; no strength is given.
B1: VHH 4.1 (VHH)
VHH: QVKLQQSGGGLVQPGGSLRLSCAASESTISINTLGWYRQAPGNQRELVATITTGGTTNYADSVKGRFTISRDNAKNTVYLQMNNLEPGDTAVYYCNLKRRDLQSRFGGYWGQGTQVTVSS
B2: VHH 5.4 (VHH)
VHH: B1 VHH with K3Q, A23V, I29V, T33I, L34M, N43K, N84S, G88E, S104A
B3: VHH 7.5 (VHH)
VHH: QVKLQESGGGLVQAGESLRLSCAASGSNFSINGVGWYRQAPGKQRELVAGITNGGYTSYADSVKGRFTISTDNAKNTVYLQMNSLRPEDTAVYYCNANFQIHRSGADYVRNYWGQGTQVTVSA
B4: VHH 19 (VHH)
VHH: QVKLQQSGGGLVQPGGSLRLSCAASGFTFRNYAMSWVRQAPGKGLEWVSAIAAGGAVTKYADSVKGRFTISRDNARDTLYLQMNSLKPEDTAVYYCAKPRDFWYSPEFDFRGQGTQVTVSS
B5: VHH 3.2 (VHH)
VHH: QVQLQESGGGLVQPGGSLRLSCAASESTPSINTMGWYRQAPGKERELVATITSGGMTNYADSVKGRFTISRDNGKNTVYLQMNSLEPGDTAVYYCNLKRRDLQARFGGYWGQGTQVTVSS
B6: VHH 16 (VHH)
VHH: QVKLQQSGGGLVQPGGSLRLTCAASGFPFSTYAIRWVRRPPGKGLEWVSTIHPDFTTNYADSVSRRFTISRDNAKNTVYLQMNSLKPEDTAVYYCSRGVSGERGQGTQVTVSS
B7: VHH 1 (VHH)
VHH: QVQLQQSGGGLVQAGGSLRLSCAASGLAFSSYAITWLRQAPGTEREFVALISGSGSSTYYADSVKGRFTISRNNAKNTVYLQMNSLKPEDTAVYYCTASEFLLHPPPPNQKYDYWGQGTQVTVSS
B8: VHH 2.1 (VHH)
VHH: QVQLQESGGGLVQAGGSLRLSCAASGLTFSSYAMGWFHQAPGKEREFVAAINWSGRDTYYADSVKGRFTISRDNRKNTVYLQMNSLKPEDTAVYYCAAAEFFSSGDPLPGMDYWGKGTLVTVSS
B9: VHH 6.3 (VHH)
VHH: QVQLQQSGGGLVQPGGSLRLSCAASGSIFSIHTMGWYRQAPGKQRELVTTITTGGTTNYADSVKGRFTISRDDAKNTVYLQMNNLKPEDTAVYYCYALIQTASTTWYRQYWGQGTQVTVSS
B10: VHH 7.3 (VHH)
VHH: QVKLQESGGGLVQPGGSLRLSCTASRSIFTRAMAWYRQAPGKQRELVAAIDSGDRTHYADSVKGRFTISRNNAKDTLYLQMNSLKSEDTAVYYCNANLGALLDYWGQGTQVTVSS
B11: VHH 8.1 (VHH)
VHH: QVKLQESGGGLVQAGGSLRLSCAASGFTFATYAMAWYRQAPGKQRELVASISNFGSTAYGDSVKGRFTISRDNAKNTVYLEMNSLKSEDTAVYYCKRVRDVIGRPELWGQGTQVTVSS
B12: VHH 11.2 (VHH)
VHH: DVQLQASGGGLVQAGGSLRLSCAASTSRFSSYAMGWSRQAPGKQRELVASISSSGLTTNYADSVKGRFTISRDNAKNTVYLQMNSLKPEDTAVYYCKADGRRYSLNEYWGQGTQVTVSS
B13: VHH 12.2 (VHH)
VHH: DVQLQASGGGLVQAGGSLRLSCAASGSTISSYAMAWYRQAPGKRRELVAHISSGGSTNYADSVKGRFTISRDNAKNTVYLQMNSLKPEDTAVYYCNIYYGGDYYYTGVKPNPWGQGTQVTVSS
B14: VHH 13.1 (VHH)
VHH: QVKLQESGGGWVQAGGSLRLSCAASALTASITTMGWFRQTPEKEREFLAAINWTGDYKYYADSVKGRFTISRDNAKNTVDLQMNQLKPEDTAVYYCAASKIRNDIYLNDYTWYQYWGQGTQVTVSS
B15: VHH 14.5 (VHH)
VHH: DVQLQASGGGLVQAGGSLRLSCVASARTFSSYAMGWFRQAPGKEREFVAAISWSGASTDYADSVKGRFTISRDNAKKTVYLQMNTLKPEDTAVYYCAAHHITPTGSYYYSEPLPVDMVYDYWGQGTQVTVSS

Experiments:
[1] = target: Hu/NoV/GI.6/Hesse/1997/GE VLP (human norovirus GI.6); assay: VLP ELISA
[2] = target: Hu/NoV/GII.1/Hawaii/1971/U.S. VLP (human norovirus GII.1); assay: VLP ELISA
[3] = target: Hu/GII.6/Bethesda/2012/U.S. VLP (human norovirus GII.6); assay: VLP ELISA
[4] = target: Hu/NoV/GII.2/Henryton/1971/U.S. VLP (human norovirus GII.2); assay: VLP ELISA
[5] = target: Hu/NoV/GII.7/DC119/U.S. VLP (human norovirus GII.7); assay: VLP ELISA
[6] = target: Hu/NoV/Snow Mountain/GII.2/U.S. VLP (human norovirus GII.2); assay: VLP ELISA
[7] = target: Hu/NoV/GII.3/Maizuru/2000/JP VLP (human norovirus GII.3); assay: VLP ELISA
[8] = target: MD2004 VP1 double mutant G340A/E376Q (human norovirus GII.4); assay: ELISA on mutant VLP
[9] = target: MD2004 VP1 double mutant G340A/E376Q (human norovirus GII.4); assay: immunofluorescence on Vero cells; ELISA on mutant VLP
[10] = target: MD2004 VP1 mutant G340A (human norovirus GII.4); assay: immunofluorescence on Vero cells
[11] = target: MD2004 VP1 mutant E376Q (human norovirus GII.4); assay: immunofluorescence on Vero cells
[12] = target: MD2004 VP1 mutant at amino acid 294 (human norovirus GII.4); assay: immunofluorescence on Vero cells
[13] = target: MD2004 VP1 mutant V389I (human norovirus GII.4); assay: immunofluorescence on Vero cells
[14] = target: MD2004 VP1 mutant N368T (human norovirus GII.4); assay: immunofluorescence on Vero cells

Row | Binder | binding [1] | binding [2] | binding [3] | binding [4] | binding [5] | binding [6] | binding [7] | binding [8] | binding [9] | binding [10] | binding [11] | binding [12] | binding [13] | binding [14]
1 | B1 | no binding | binds | binds | binds | binds | binds | binds | binds | – | – | – | – | – | –
2 | B2 | no binding | binds | binds | binds | binds | binds | binds | binds | – | – | – | – | – | –
3 | B3 | no binding | binds | binds | binds | binds | binds | binds | binds | – | – | – | – | – | –
4 | B4 | no binding | binds | binds | binds | binds | binds | binds | binds | – | – | – | – | – | –
5 | B5 | no binding | no binding | binds | no binding | no binding | no binding | no binding | binds | – | – | – | – | – | –
6 | B6 | no binding | no binding | no binding | no binding | no binding | no binding | no binding | – | no binding | no binding | no binding | binds | binds | binds
7 | B7 | no binding | no binding | no binding | no binding | no binding | no binding | no binding | binds | – | – | – | – | – | –
8 | B8 | no binding | no binding | no binding | no binding | no binding | no binding | no binding | binds | – | – | – | – | – | –
9 | B9 | no binding | no binding | no binding | no binding | no binding | no binding | no binding | – | – | – | – | – | – | –
10 | B10 | no binding | no binding | no binding | no binding | no binding | no binding | no binding | – | – | – | – | – | – | –
11 | B11 | no binding | no binding | no binding | no binding | no binding | no binding | no binding | – | – | – | – | – | – | –
12 | B12 | no binding | no binding | no binding | no binding | no binding | no binding | no binding | – | – | – | – | – | – | –
13 | B13 | no binding | no binding | no binding | no binding | no binding | no binding | no binding | – | – | – | – | – | – | –
14 | B14 | no binding | no binding | no binding | no binding | no binding | no binding | no binding | – | – | – | – | – | – | –
15 | B15 | no binding | no binding | no binding | no binding | no binding | no binding | no binding | – | – | – | – | – | – | –
